Among the data in article PMC4146578 are binding values, retold here.

Results are given in words; binding and its absence hold for the method and conditions named.

The test addresses FOG-PR, residues P100–V254 of murine FOG1 (Friend of GATA 1) (mouse) (UniProt O35615). The test can be described thus: SEC-MALS; size exclusion chromatography with in-line multi-angle laser light scattering (MALLS); mass estimate ~17.2 kDa against theoretical 17.0 kDa; both purified.

B1: FOG-PR, residues P100–V254 of murine FOG1 (Friend of GATA 1) (domain or fragment, UniProt O35615 100-254)
chain: PWSGPEELELALQDGQRCVRARLSLTEGLSWGPFYGSIQTRALSPEREEPGPAVTLMVDESCWLRMLPQVLTEEAANSEIYRKDDALWCRVTKVVPSGGLLYVRLVTEPHGAPRHPVQEPVEPGGLAPVHTDIQLLPQQAGMASILATAVINKDV
Consider B1, for which the binding entry is given as “no binding”.
